No constants are given. Whether binding was seen depends on the method and setting. Binding seen in cells or lysates may run through a third protein. Some results given as binding are weak or reduced against the parent protein; the word gives no strength. For part of these data: Where a sequence is shown, tags or fusion partners need not be part of it. Each block holds one binder with its values, some of them ahead of it.
Experiments:
[1] = target: SIRT7-V5/His (V5/His-tagged human wildtype sirtuin 7) (human) (UniProt Q9NRC8); test: co-IP; HEK293 cells co-transfected with tagged FBXO7 and SIRT7-V5/His; lysates in 1% Nonidet P-40 lysis buffer (50 mM Tris pH 7.5, 150 mM NaCl, 10% glycerol) immunoprecipitated with anti-V5 antibody overnight at 4 °C, Protein A Sepharose, immunoblot
[2] = target: endogenous SIRT7 (mouse whole brain) (mouse (endogenous in whole brain)) (UniProt Q8BKJ9); test: co-IP; endogenous proteins; mouse whole-brain lysates (50 mM Tris pH 7.4, 150 mM NaCl, 1% Triton X-100, 0.5% sodium deoxycholate, 0.1% SDS) immunoprecipitated with anti-SIRT7 IgG, immunoblot

Chains of the proteins cited; added tags and fusions are not shown.
UniProt Q9NRC8: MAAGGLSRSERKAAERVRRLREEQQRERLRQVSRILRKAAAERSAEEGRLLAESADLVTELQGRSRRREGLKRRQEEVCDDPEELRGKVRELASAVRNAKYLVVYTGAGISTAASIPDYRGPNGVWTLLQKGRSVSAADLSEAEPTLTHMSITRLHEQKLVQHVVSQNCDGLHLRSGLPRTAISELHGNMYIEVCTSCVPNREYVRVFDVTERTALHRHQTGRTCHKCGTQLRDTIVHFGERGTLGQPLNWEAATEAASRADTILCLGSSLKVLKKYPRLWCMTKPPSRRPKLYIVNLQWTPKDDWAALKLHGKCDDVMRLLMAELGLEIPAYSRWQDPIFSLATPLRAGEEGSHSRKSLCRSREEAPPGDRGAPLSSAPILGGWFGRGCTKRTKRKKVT
UniProt Q8BKJ9: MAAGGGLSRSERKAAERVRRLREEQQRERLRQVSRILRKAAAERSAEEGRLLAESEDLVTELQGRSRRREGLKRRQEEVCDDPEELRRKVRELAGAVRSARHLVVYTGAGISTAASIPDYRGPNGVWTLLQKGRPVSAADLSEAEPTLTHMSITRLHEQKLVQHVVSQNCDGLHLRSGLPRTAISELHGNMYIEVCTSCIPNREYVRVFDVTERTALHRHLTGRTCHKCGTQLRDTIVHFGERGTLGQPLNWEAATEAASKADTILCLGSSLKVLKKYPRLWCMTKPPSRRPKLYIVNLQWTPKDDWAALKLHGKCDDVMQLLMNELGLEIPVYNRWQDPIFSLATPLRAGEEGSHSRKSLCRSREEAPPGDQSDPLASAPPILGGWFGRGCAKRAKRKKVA

- binding [1]: no binding
B1: FLAG-FBXO7-▵N (FBXO7 lacking the N-terminal region of amino acids 1 to 333) (domain or fragment, UniProt Q9Y3I1 334-522)
chain: VLPLELKLRIFRLLDVRSVLSLSAVCRDLFTASNDPLLWRFLYLRDFRDNTVRVQDTDWKELYRKRHIQRKESPKGRFVMLLPSSTHTIPFYPNPLHPRPFPSSRLPPGIIGGEYDQRPTLPYVGDPISSLIPGPGETPSQFPPLRPRFDPVGPLPGPNPILPGRGGPNDRFPFRPSRGRPTDGRLSFM

- binding [2]: binds
B2: endogenous FBXO7 (mouse whole brain) (protein, UniProt Q3U7U3 1-523)
chain: MKLRVRLQKRTQPLEVPESEPTLGQLRAHLSQVLLPTLGFSSDTRFAITLNNKDALTGDEETLASYGIVSGDLICLVLEDDMPAPNLPSSTDTEHSSLQDNDQPSLAATPSQTNIPDEQGTDSSQGQATPFDAWTDDSMEGPSQNVEAESIQDAMSMEEVSGFHPLEPMLCNETEDGQVPHSLETLYQSAGCSNISDALIVLVHLLMLESGYIPQGTETKAVTMPEKWKSSGVYKLQYTHPLCEGGFAVLTCVPLGNLIIINATIKVNGGIKNVKSVQLQPGSYVAAGVEPGESAAKVYKDLKKLSRLFKDQLVYPLLAFTRQVLNLPDVFGLVVLPLELKLRIFRLLDVHSVLALSAVCHDLLIASNDPLLWRCLYLRDFRDGTVRGPDTDWKELYRKKHIQRKEAQRMRHAMFLPSAHPIPFCPIPVYPRAYLPTSLLPPGIIGGEYDERPILPSVGDPVTSLIPRPGELPGQFRPLRPRFDPVDPLPGPHSLLPGRAIPNNRFPFRPGRGRSADSRLPFL

- binding [1]: binds
B3: FLAG-FBXO7-▵C (FBXO7 lacking the C-terminal region of amino acids 376 to 522) (domain or fragment, UniProt Q9Y3I1 1-375)
chain: MRLRVRLLKRTWPLEVPETEPTLGHLRSHLRQSLLCTWGYSSNTRFTITLNYKDPLTGDEETLASYGIVSGDLICLILQDDIPAPNIPSSTDSEHSSLQNNEQPSLATSSNQTSMQDEQPSDSFQGQAAQSGVWNDDSMLGPSQNFEAESIQDNAHMAEGTGFYPSEPMLCSESVEGQVPHSLETLYQSADCSDANDALIVLIHLLMLESGYIPQGTEAKALSMPEKWKLSGVYKLQYMHPLCEGSSATLTCVPLGNLIVVNATLKINNEIRSVKRLQLLPESFICKEKLGENVANIYKDLQKLSRLFKDQLVYPLLAFTRQALNLPDVFGLVVLPLELKLRIFRLLDVRSVLSLSAVCRDLFTASNDPLLWRFL

— publication PMC9971319
